These are yes or no findings as the source states them, for the method shown. In cells and extracts the contact can be indirect. Some binding calls cover weakened binding; strength is not graded here.
Assays:
[1] = molecular target: p21-activated kinase 2 (rat (endogenous in rat cortical neurons)) (UniProt Q64303); assay: co-IP; endogenous proteins; rat cortical neuron lysates (500 μl, 3 μg/μl) in RIPA lysis buffer with protease and phosphatase inhibitors, incubated with anti-Nischarin, anti-PAK1 or anti-PAK2 antibody at 4°C for 6 h, Protein G-Sepharose beads 2 h, washed three times; western blot; IgG as negative control
[2] = molecular target: p21-activated kinase 1 (rat (endogenous in rat cortical neurons)) (UniProt P35465); assay: as above

Chains of the proteins cited; added tags and fusions are not shown.
UniProt Q64303: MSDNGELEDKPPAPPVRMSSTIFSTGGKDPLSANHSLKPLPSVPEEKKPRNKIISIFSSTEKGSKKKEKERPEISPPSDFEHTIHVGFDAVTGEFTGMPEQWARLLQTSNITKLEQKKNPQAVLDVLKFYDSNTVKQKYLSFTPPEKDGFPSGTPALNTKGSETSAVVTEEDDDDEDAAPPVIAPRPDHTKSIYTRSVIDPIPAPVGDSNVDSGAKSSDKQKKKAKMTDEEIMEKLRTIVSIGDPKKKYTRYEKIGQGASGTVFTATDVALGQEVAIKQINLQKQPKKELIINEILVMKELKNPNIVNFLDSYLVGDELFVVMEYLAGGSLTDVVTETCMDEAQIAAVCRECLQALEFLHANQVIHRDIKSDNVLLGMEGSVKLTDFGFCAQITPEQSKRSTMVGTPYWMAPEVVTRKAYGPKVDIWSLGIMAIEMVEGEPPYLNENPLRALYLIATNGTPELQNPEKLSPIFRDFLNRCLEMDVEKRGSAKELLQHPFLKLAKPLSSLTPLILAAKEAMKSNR
UniProt P35465: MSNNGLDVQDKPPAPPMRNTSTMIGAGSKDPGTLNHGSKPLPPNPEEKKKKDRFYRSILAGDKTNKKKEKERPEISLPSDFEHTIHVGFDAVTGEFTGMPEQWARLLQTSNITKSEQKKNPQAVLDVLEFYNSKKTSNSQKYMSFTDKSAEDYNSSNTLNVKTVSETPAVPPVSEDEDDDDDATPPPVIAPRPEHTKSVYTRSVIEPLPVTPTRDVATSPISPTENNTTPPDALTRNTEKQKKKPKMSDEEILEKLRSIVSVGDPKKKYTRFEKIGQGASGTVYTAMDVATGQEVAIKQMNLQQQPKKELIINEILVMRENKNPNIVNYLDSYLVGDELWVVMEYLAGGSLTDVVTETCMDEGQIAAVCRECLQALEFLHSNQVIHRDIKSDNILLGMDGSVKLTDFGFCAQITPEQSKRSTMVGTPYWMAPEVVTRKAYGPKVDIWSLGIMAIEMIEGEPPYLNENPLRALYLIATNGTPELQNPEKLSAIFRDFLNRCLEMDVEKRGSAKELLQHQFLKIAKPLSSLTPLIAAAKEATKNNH
UniProt Q4G017: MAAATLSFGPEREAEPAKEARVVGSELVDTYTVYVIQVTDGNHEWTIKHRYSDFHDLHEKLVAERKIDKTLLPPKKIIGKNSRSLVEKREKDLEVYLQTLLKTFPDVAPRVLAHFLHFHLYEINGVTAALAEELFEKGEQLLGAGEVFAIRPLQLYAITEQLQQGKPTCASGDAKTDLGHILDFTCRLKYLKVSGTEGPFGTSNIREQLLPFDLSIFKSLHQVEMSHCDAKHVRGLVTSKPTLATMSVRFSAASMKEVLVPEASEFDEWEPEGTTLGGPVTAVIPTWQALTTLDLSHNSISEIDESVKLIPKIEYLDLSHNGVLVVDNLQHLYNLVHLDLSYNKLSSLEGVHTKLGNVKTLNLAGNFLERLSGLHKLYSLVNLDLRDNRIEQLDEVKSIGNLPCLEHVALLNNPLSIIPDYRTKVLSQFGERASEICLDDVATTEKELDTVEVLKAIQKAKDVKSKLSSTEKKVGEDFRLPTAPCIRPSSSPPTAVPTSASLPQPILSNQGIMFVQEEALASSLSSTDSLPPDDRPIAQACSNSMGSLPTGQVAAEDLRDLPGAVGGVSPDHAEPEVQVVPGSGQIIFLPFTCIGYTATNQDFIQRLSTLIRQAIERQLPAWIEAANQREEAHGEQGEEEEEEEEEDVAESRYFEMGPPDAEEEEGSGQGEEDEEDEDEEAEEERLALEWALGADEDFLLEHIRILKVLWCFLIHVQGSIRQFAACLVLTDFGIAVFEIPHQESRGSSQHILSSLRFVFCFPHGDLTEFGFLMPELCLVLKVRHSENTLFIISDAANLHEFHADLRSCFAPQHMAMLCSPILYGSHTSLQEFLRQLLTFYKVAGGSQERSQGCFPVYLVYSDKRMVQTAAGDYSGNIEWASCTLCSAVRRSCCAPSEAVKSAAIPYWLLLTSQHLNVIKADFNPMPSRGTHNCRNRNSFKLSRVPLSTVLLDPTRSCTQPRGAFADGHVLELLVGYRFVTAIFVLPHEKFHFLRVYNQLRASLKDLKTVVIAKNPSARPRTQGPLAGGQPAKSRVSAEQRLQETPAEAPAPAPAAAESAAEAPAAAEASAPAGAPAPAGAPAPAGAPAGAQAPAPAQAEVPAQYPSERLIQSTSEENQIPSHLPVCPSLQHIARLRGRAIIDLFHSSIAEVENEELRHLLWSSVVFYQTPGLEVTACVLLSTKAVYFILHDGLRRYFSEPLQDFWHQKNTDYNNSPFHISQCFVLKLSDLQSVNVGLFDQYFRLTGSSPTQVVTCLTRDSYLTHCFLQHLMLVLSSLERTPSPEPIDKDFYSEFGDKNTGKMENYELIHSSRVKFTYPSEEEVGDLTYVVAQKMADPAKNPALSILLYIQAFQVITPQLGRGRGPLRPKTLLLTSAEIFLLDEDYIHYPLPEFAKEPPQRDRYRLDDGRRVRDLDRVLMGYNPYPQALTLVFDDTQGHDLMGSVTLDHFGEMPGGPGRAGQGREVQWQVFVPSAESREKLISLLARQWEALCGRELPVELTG

binding [1]: binds
binding [2]: binds
Substance: Nischarin (from UniProt Q4G017 1-1502)

— publication PMC4682924
